Patent publication US20240277781A1, “Compositions Comprising Microbes and Methods of Use and Making Thereof” (Pendulum Therapeutics, Inc., priority 2021, published 2024)

Tested on: formulation strains (AMUC, BINF, CBEI, CBUT, EHAL)
Type: cell-based

SMILES: Cc1cnc(C(=O)NCCc2ccc(S(=O)(=O)NC(=O)NC3CCCCC3)cc2)cn1 [glipizide]
- growth inhibition of formulation strains (yield decrease, lag increase): substantially muted inhibitory effect
